Experiment in all cases: pull-down
The target of assay [1] is T1, MBP-MEX3C(418-600)-lipoyl (H. sapiens) (UniProt Q5U5Q3).
T1 sequence: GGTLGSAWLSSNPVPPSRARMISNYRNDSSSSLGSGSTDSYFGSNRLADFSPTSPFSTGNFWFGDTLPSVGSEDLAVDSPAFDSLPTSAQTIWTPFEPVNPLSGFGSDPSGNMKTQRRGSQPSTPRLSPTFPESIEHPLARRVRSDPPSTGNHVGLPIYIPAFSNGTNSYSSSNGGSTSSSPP

In assay [2] the target is T2, MBP-tagged MEX3C(222-659), construct 3 (H. sapiens) (UniProt Q5U5Q3).
T2 sequence: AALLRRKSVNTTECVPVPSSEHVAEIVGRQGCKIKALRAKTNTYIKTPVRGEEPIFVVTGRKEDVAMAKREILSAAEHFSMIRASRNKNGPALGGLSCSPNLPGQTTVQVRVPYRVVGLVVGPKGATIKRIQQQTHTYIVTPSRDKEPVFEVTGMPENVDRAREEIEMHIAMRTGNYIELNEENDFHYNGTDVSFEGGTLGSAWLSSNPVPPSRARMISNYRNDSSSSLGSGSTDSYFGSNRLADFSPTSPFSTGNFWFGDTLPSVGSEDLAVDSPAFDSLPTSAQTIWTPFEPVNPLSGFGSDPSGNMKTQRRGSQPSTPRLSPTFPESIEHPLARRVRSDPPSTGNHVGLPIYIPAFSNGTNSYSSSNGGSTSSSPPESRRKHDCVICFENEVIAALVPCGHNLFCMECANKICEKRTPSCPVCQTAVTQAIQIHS

Assay [3] has as its target T3, MBP-MEX3C(222-600)-lipoyl (H. sapiens) (UniProt Q5U5Q3).
T3 sequence: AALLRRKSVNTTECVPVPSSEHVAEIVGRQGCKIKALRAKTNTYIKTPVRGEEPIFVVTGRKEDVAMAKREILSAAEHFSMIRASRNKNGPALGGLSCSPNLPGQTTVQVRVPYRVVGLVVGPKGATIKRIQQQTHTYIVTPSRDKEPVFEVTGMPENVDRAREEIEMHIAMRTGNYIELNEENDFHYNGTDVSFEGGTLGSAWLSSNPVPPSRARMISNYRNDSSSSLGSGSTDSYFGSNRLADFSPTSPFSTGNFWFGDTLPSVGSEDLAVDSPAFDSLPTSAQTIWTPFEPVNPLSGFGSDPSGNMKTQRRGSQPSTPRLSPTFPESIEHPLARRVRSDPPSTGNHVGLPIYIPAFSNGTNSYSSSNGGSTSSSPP

The target in assay [4] is T4, MBP-tagged MEX3C, construct 1 (full-length) (H. sapiens) (UniProt Q5U5Q3).
T4 sequence: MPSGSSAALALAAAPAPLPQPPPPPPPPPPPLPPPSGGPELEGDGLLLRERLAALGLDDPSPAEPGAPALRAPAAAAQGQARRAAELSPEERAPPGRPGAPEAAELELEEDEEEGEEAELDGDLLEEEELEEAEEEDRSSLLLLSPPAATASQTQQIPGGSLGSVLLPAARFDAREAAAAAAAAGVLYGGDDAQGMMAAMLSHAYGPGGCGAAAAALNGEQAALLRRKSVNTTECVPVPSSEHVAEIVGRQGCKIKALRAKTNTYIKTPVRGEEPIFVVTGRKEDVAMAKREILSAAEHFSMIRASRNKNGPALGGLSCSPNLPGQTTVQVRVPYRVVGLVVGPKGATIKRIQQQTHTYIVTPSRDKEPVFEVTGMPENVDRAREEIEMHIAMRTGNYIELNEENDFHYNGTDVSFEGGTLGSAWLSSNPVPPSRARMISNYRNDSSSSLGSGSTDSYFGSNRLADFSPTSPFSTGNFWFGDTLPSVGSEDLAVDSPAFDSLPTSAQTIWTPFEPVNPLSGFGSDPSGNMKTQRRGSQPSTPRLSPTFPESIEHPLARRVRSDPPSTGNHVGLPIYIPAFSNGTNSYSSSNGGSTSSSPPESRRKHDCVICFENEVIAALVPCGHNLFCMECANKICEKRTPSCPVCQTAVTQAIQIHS

The target of assay [5] is PAN2–PAN3^ΔN278-SII (H. sapiens).
In assay [6] the target is PAN2^E980A–PAN3^ΔN278-SII (H. sapiens).

No constants are given. Whether binding was seen depends on the method and setting. Binding calls can cover weak binding; strength is not graded here. For part of these data: Tags and fused reporters may be left off the sequences shown.

“PAN2–PAN3^ΔN278-SII (H. sapiens) (complex)”: the binding result in assay [1], in assay [2], in assay [3] and in assay [4] was “binds” each time.

B1: MEX3C (protein, UniProt Q5U5Q3 1-659)
chain: MPSGSSAALALAAAPAPLPQPPPPPPPPPPPLPPPSGGPELEGDGLLLRERLAALGLDDPSPAEPGAPALRAPAAAAQGQARRAAELSPEERAPPGRPGAPEAAELELEEDEEEGEEAELDGDLLEEEELEEAEEEDRSSLLLLSPPAATASQTQQIPGGSLGSVLLPAARFDAREAAAAAAAAGVLYGGDDAQGMMAAMLSHAYGPGGCGAAAAALNGEQAALLRRKSVNTTECVPVPSSEHVAEIVGRQGCKIKALRAKTNTYIKTPVRGEEPIFVVTGRKEDVAMAKREILSAAEHFSMIRASRNKNGPALGGLSCSPNLPGQTTVQVRVPYRVVGLVVGPKGATIKRIQQQTHTYIVTPSRDKEPVFEVTGMPENVDRAREEIEMHIAMRTGNYIELNEENDFHYNGTDVSFEGGTLGSAWLSSNPVPPSRARMISNYRNDSSSSLGSGSTDSYFGSNRLADFSPTSPFSTGNFWFGDTLPSVGSEDLAVDSPAFDSLPTSAQTIWTPFEPVNPLSGFGSDPSGNMKTQRRGSQPSTPRLSPTFPESIEHPLARRVRSDPPSTGNHVGLPIYIPAFSNGTNSYSSSNGGSTSSSPPESRRKHDCVICFENEVIAALVPCGHNLFCMECANKICEKRTPSCPVCQTAVTQAIQIHS
For B1, the binding result in assay [5] was “binds”.

B2: MEX3B (protein, UniProt Q6ZN04 1-569)
chain: MPSSLFADLERNGSGGGGGGSSGGGETLDDQRALQLALDQLSLLGLDSDEGASLYDSEPRKKSVNMTECVPVPSSEHVAEIVGRQGCKIKALRAKTNTYIKTPVRGEEPVFVVTGRKEDVAMARREIISAAEHFSMIRASRNKNTALNGAVPGPPNLPGQTTIQVRVPYRVVGLVVGPKGATIKRIQQQTHTYIVTPSRDKEPVFEVTGMPENVDRAREEIEAHIALRTGGIIELTDENDFHANGTDVGFDLHHGSGGSGPGSLWSKPTPSITPTPGRKPFSSYRNDSSSSLGSASTDSYFGGGTSSSAAATQRLADYSPPSPALSFAHNGNNNNNGNGYTYTAGGEASVPSPDGCPELQPTFDPAPAPPPGAPLIWAQFERSPGGGPAAPVSSSCSSSASSSASSSSVVFPGGGASAPSNANLGLLVHRRLHPGTSCPRLSPPLHMAPGAGEHHLARRVRSDPGGGGLAYAAYANGLGAQLPGLQPSDTSGSSSSSSSSSSSSSSSSGLRRKGSRDCSVCFESEVIAALVPCGHNLFCMECANRICEKSEPECPVCHTAVTQAIRIFS
Consider B2, for which the binding entry in assay [6] was “binds”.

Values taken from doi:10.1101/2025.09.27.678968.
